Like-named read-outs stand apart in the source and are kept apart here. Some entries share one result that the patent states for a list of compounds.
Columns and labels:
Assay type in all cases: in vivo
[1] = system: wheat rust fungi (Puccinia recondita); assay: Test Example 2: wheat rust control, foliar spray on wheat (cv Shirogane), 500 ppm; settings: 500 ppm foliar spray, inoculated 5 days after spraying, observed after 1 + 8 days
[2] = system: wheat rust fungi (Puccinia recondita); assay: Test Example 8: wheat rust control, foliar spray on wheat (cv Shirogane), 200 ppm; settings: 200 ppm foliar spray, inoculated 5 days after spraying, observed after 1 + 8 days
[3] = system: rice blast fungi (Magnaporthe grisea); settings: 500 ppm foliar spray; rice cv Nipponbare; contact with infected seedlings 6 days, high humidity
[4] = system: tomato late blight fungi (Phytophthora infestans); settings: tomato (cv; Patio), 500 ppm foliar spray
[5] = system: rice blast fungi (Magnaporthe grisea); settings: 200 ppm foliar spray; rice cv Nipponbare; contact with infected seedlings 6 days, high humidity

Cc1cc(-n2nc(C)c(C)c2C)ccc1OCc1c(C2CC2)cccc1-n1nnn(C)c1=O [Present compound 2, 1-{3-cyclopropyl-2-[2-methyl-4-(3,4,5-trimethyl-pyrazol-1-yl)-phenoxymethyl]-phenyl}-4-methyl-1,4-dihydrotetrazole-5-one]
≤ 30%: lesion area in treated plants compared to the lesion area in untreated plants [1] | lesion area in treated plants compared to the lesion area in untreated plants [2] | lesion area in treated plants compared to the lesion area in untreated plants [3]

Cc1cc(-n2cc(C)c(C)n2)ccc1OCc1c(C2CC2)cccc1-n1nnn(C)c1=O [Present compound 6, 1-{3-cyclopropyl-2-[2-methyl-4-(3,4-dimethyl-pyrazol-1-yl)-phenoxymethyl]-phenyl}-4-methyl-1,4-dihydrotetrazole-5-one]
≤ 30%: lesion area in treated plants compared to the lesion area in untreated plants [1] | lesion area compared to the lesion area in untreated plants [4] | lesion area in treated plants compared to the lesion area in untreated plants [2] | lesion area in treated plants compared to the lesion area in untreated plants [5] | lesion area in treated plants compared to the lesion area in untreated plants [3]

Cc1cc(-c2cc(C)n(C)n2)ccc1OCc1c(C2CC2)cccc1-n1nnn(C)c1=O [Present compound 15, 1-{3-cyclopropyl-2-[2-methyl-4-(1,5-dimethyl-1H-pyrazol-3-yl)-phenoxymethyl]-phenyl}-4-methyl-1,4-dihydrotetrazole-5-one]
≤ 30%: lesion area in treated plants compared to the lesion area in untreated plants [1] | lesion area in treated plants compared to the lesion area in untreated plants [2] | lesion area in treated plants compared to the lesion area in untreated plants [5] | lesion area in treated plants compared to the lesion area in untreated plants [3]

Cc1nn(-c2ccc(OCc3c(OC(F)F)cccc3-n3nnn(C)c3=O)c(Cl)c2)c(C)c1C [Present compound 17, 1-{3-difluoromethoxy-2-[2-chloro-4-(3,4,5-trimethyl-pyrazol-1-yl)-phenoxymethyl]-phenyl}-4-methyl-1,4-dihydrotetrazole-5-one]
≤ 30%: lesion area in treated plants compared to the lesion area in untreated plants [2] | lesion area in treated plants compared to the lesion area in untreated plants [3]

Cc1cc(C)n(-c2ccc(OCc3c(C4CC4)cccc3-n3nnn(C)c3=O)c(C)c2)n1 [Present compound 3, 1-{3-cyclopropyl-2-[2-methyl-4-(3,5-dimethyl-pyrazol-1-yl)-phenoxymethyl]-phenyl}-4-methyl-1,4-dihydrotetrazole-5-one]
≤ 30%: lesion area in treated plants compared to the lesion area in untreated plants [2] | lesion area in treated plants compared to the lesion area in untreated plants [3]

Cc1cc(-c2ccn(C)n2)ccc1OCc1c(C2CC2)cccc1-n1nnn(C)c1=O [Present compound 12, 1-{3-cyclopropyl-2-[2-methyl-4-(1-methyl-1H-pyrazol-3-yl)-phenoxymethyl]-phenyl}-4-methyl-1,4-dihydrotetrazole-5-one]
≤ 30%: lesion area in treated plants compared to the lesion area in untreated plants [1] | lesion area in treated plants compared to the lesion area in untreated plants [2] | lesion area in treated plants compared to the lesion area in untreated plants [5]

Cc1cc(-c2nn(C)c(C)c2C)ccc1OCc1c(C2CC2)cccc1-n1nnn(C)c1=O [Present compound 25, 1-{3-cyclopropyl-2-[2-methyl-4-(1,4,5-trimethyl-1H-pyrazol-3-yl)-2-methyl-phenoxymethyl]-phenyl}-4-methyl-1,4-dihydrotetrazole-5-one]
≤ 30%: lesion area in treated plants compared to the lesion area in untreated plants [1] | lesion area in treated plants compared to the lesion area in untreated plants [2] | lesion area in treated plants compared to the lesion area in untreated plants [5]

Cc1nn(-c2ccc(OCc3c(C4CC4)cccc3-n3nnn(C)c3=O)c(Cl)c2)c(C)c1C [Present compound 7, 1-{3-cyclopropyl-2-[2-chloro-4-(3,4,5-trimethyl-pyrazol-1-yl)-phenoxymethyl]-phenyl}-4-methyl-1,4-dihydrotetrazole-5-one]
≤ 30%: lesion area in treated plants compared to the lesion area in untreated plants [1] | lesion area compared to the lesion area in untreated plants [4] | lesion area in treated plants compared to the lesion area in untreated plants [2] | lesion area in treated plants compared to the lesion area in untreated plants [5]

Cc1cc(-c2ccn(C)n2)ccc1OCc1c(OC(F)F)cccc1-n1nnn(C)c1=O [Present compound 18, 1-{3-difluoromethoxy-2-[2-methyl-4-(1-methyl-1H-pyrazol-3-yl)-phenoxymethyl]-phenyl}-4-methyl-1,4-dihydrotetrazole-5-one]
≤ 30%: lesion area in treated plants compared to the lesion area in untreated plants [1] | lesion area in treated plants compared to the lesion area in untreated plants [2] | lesion area in treated plants compared to the lesion area in untreated plants [5]

Cc1cc(-c2ccn(C(C)C)n2)ccc1OCc1c(C2CC2)cccc1-n1nnn(C)c1=O [Present compound 14, 1-{3-cyclopropyl-2-[2-methyl-4-(1-isopropyl-1H-pyrazol-3-yl)-phenoxymethyl]-phenyl}-4-methyl-1,4-dihydrotetrazole-5-one]
≤ 30%: lesion area in treated plants compared to the lesion area in untreated plants [1] | lesion area in treated plants compared to the lesion area in untreated plants [2] | lesion area in treated plants compared to the lesion area in untreated plants [5]

Cc1cc(-c2nn(C)cc2C)ccc1OCc1c(C2CC2)cccc1-n1nnn(C)c1=O [Present compound 24, 1-{3-cyclopropyl-2-[4-(1,4-dimethyl-1H-pyrazol-3-yl)-2-methyl-phenoxymethyl]-phenyl}-4-methyl-1,4-dihydrotetrazole-5-one]
≤ 30%: lesion area in treated plants compared to the lesion area in untreated plants [1] | lesion area in treated plants compared to the lesion area in untreated plants [5] | lesion area in treated plants compared to the lesion area in untreated plants [3]

— patent US9554576B2, “Tetrazolinone compounds and their use as pesticides” (SUMITOMO CHEMICAL COMPANY, LIMITED, priority 2012, dated 2017)
